This is an account of results in doi:10.1101/2023.01.03.522657.

Substitutions are numbered along the chain they refer to. Results are given in words; binding and its absence hold for the method and conditions named. Binding seen in cells or lysates may run through a third protein. Binding calls can cover weak binding; strength is not graded here. Where a sequence is shown, tags or fusion partners need not be part of it.

The target in experiment [1] is T1, V5-tagged DHR2 limit domain of Dock7 (human (cDNA from HeLa cells)) (UniProt Q96N67).
T1 sequence: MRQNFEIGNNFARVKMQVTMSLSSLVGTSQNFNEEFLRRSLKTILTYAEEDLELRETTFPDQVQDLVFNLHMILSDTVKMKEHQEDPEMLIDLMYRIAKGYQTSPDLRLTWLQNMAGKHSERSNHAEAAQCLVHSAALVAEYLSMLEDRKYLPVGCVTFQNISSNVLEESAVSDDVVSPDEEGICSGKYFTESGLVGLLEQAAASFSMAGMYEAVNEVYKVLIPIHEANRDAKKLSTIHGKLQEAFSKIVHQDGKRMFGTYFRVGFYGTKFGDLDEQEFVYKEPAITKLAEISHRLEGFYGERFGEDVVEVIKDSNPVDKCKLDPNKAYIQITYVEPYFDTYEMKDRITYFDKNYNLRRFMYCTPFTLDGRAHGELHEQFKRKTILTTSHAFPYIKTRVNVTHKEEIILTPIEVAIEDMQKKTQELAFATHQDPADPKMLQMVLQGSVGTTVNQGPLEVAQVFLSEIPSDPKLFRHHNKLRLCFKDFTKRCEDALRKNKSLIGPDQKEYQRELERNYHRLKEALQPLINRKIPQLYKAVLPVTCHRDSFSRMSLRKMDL
In words: co-IP; HEK-293T lysates (50 mM Hepes pH 8.0, 150 mM NaCl, 0.3% CHAPS); anti-Myc, HA, Flag or V5 antibody 2 h, then BSA-coated Protein G beads 1 h at 4°C; Western blot.

The target in experiment [2] is T2, V5-tagged DHR1L (Dock7 DHR1 domain with a C-terminal 183 amino acid addition of the downstream linker region) (human (cDNA from HeLa cells)) (UniProt Q96N67).
T2 sequence: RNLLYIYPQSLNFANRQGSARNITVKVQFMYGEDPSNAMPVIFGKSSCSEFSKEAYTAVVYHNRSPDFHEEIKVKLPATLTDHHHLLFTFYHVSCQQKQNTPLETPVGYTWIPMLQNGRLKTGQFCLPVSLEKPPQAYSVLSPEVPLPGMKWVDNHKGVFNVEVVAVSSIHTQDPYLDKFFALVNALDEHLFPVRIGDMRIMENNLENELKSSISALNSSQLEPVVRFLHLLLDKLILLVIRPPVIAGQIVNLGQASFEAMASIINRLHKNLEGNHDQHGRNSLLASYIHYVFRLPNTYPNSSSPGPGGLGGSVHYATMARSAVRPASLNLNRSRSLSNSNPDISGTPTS
The experiment is described as above.

For experiment [3], the target named is T1, V5-tagged DHR2 limit domain of Dock7 (human (cDNA from HeLa cells)). In words: proximity ligation; Duolink PLA between the V5 tag of an overexpressed Dock7 construct and an endogenous partner in fixed, serum-starved MDA-MB-231 cells (limit domains: after Dock7 knockdown).
Experiment [4] addresses T3, V5-tagged DHR1L C2 mutant (human (cDNA from HeLa cells)) (UniProt Q96N67).
T3 sequence: T2 sequence with R16A, R21A
The description is as above.

Flag-tagged AKT: the binding result in experiment [1] and in experiment [2] was “binds” throughout.
Regarding endogenous AKT, the binding result in experiment [3] and in experiment [4] was “binds” each time.
